Record: PubChem BioAssay AID504786 (Drosophila RNAi Screening Center, 2011)
In all, the deposit lists about 21,000 reagents; below is an unselected part of those with a known target gene and a result. 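Primary screen; positive scores mean lost reporter signal, so the sign may be inverted from the usual convention.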 A plus sign joins genes that one reagent is predicted to hit. Not all columns of the deposit are shown. Reagent sequences are not shown.

Purpose: 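Positive regulators of HIF-driven reporter output in Drosophila cells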 (primary screen)
Cells: Drosophila S2 cells with a stable HIF luciferase reporter
Knock-down reagent: long dsRNA against Drosophila genes, about 0.2 µg dsRNA per well of a 384-well plate
Time to read-out: three days of knock-down, then 20 h of DFO before reading
Challenge: desferrioxamine (DFO) at 100 µM, an iron chelator that mimics hypoxia, for 20 h
Detection: 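Firefly luciferase driven by the mouse ldh-a hypoxia-response element, measured after 20 h of 100 µM DFO; z-scores per plate, higher means more signal lost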
Scale: z-score: higher = stronger loss of HIF reporter signal

Knock-down of CG5191 [DRSC15733] came out at: z-score, replicate 1 = -0.3.
After knock-down of CG5191 [DRSC15734] the results were z-score, replicate 1 = 0.6.
For SMC5 [DRSC11849], the entry reads z-score, replicate 1 = -0.3.
Depletion of Pdf [DRSC16786] resulted in: z-score, replicate 1 = -0.1.
JhI-21 [DRSC02161] gave z-score, replicate 1 = -0.3.
Against Sec31 [DRSC07131] the deposit lists z-score, replicate 1 = -0.2.
CG11841 [DRSC14399] scored z-score, replicate 1 = -0.1.
After knock-down of CG12863 [DRSC06203], the record shows z-score, replicate 1 = -0.3.
Knock-down of Kat60 [DRSC12378] resulted in: z-score, replicate 1 = -0.2.
Dpit47 [DRSC04985] gave z-score, replicate 1 = 0.
For beat-IV [DRSC14195], the values are z-score, replicate 1 = -0.2.
beat-IV [DRSC14673] scored z-score, replicate 1 = -0.3.
Plap [DRSC00678] scored z-score, replicate 1 = -0.3.
For CG33229 [DRSC07863], the values are z-score, replicate 1 = -0.3.
After knock-down of CG5946 [DRSC10560] the results were z-score, replicate 1 = -0.3.
Silencing of CG9945 [DRSC07347] resulted in: z-score, replicate 1 = -0.5.
Prp3 [DRSC10912] gave z-score, replicate 1 = 3.2.
CG42544 [DRSC12451] showed z-score, replicate 1 = -0.6.
After knock-down of nw [DRSC06749], the screen gave z-score, replicate 1 = -0.3.
nw [DRSC06896] gave z-score, replicate 1 = 0.1.
Against insb [DRSC06995], the values are z-score, replicate 1 = -0.3.
Against Sfp26Ad [DRSC00904], the entry reads z-score, replicate 1 = 1.7.
CG17292 [DRSC02594] gave z-score, replicate 1 = 0.
Depletion of Desat2 [DRSC15919] came out at: z-score, replicate 1 = -0.4.
Against Dph5 [DRSC16653], the entry reads z-score, replicate 1 = -0.1.
For Hacl [DRSC06061] the deposit lists z-score, replicate 1 = -0.2.
CG3342 [DRSC18304] gave z-score, replicate 1 = -0.4.
After knock-down of CG44325 [DRSC18423] the results were z-score, replicate 1 = -0.2.
For CG9130 + CG9133 [DRSC08624] the deposit lists z-score, replicate 1 = -0.3.
Knock-down of CG9130 + CG9133 [DRSC08625] gave: z-score, replicate 1 = 2.
RpS11 [DRSC07289] scored z-score, replicate 1 = -0.4.
With knock-down of CG31406 [DRSC12777] the results were z-score, replicate 1 = -0.2.
Knock-down of CCT3 [DRSC16602] gave: z-score, replicate 1 = -0.2.
With knock-down of CG4935 [DRSC01924], the record shows z-score, replicate 1 = -0.4.
For betaNACtes2 [DRSC19792], the values are z-score, replicate 1 = -0.2.
Against Vha100-4 [DRSC16282], the values are z-score, replicate 1 = -0.4.
CG7335 [DRSC10816] scored z-score, replicate 1 = -0.2.
Silencing of pdgy [DRSC19064] gave: z-score, replicate 1 = -0.1.
Knock-down of pdgy [DRSC19341] resulted in: z-score, replicate 1 = -0.2.
Silencing of CG6845 [DRSC08576] came out at: z-score, replicate 1 = -0.2.

2 successive records from above:
CG11841 [DRSC14399]: z-score, replicate 1 = -0.1
CG12863 [DRSC06203]: z-score, replicate 1 = -0.3
